# According to the supplement of paper PMC10849652:
# Amino acid sequences for entries named in this document (tags omitted). A change or cut given only in a name is not applied to a line headed by its entry.
# UniProt Q8TBP6: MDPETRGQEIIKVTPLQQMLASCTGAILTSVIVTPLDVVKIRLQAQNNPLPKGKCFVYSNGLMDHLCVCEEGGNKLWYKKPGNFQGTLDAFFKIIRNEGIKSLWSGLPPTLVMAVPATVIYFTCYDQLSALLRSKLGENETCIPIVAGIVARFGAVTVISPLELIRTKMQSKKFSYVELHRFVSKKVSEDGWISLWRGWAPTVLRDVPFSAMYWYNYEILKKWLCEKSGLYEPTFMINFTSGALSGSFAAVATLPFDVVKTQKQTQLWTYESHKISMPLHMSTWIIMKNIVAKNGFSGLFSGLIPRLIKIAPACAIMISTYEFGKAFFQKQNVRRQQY
# UniProt Q9H1U9: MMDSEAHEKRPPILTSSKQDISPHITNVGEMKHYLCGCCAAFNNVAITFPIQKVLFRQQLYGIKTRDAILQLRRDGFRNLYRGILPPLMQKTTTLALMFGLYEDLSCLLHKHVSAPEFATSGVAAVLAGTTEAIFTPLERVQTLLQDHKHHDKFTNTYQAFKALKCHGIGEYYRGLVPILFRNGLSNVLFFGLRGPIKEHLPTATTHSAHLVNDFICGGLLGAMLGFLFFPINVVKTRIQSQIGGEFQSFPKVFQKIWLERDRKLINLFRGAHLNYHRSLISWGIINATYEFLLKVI
# UniProt Q9NYZ2: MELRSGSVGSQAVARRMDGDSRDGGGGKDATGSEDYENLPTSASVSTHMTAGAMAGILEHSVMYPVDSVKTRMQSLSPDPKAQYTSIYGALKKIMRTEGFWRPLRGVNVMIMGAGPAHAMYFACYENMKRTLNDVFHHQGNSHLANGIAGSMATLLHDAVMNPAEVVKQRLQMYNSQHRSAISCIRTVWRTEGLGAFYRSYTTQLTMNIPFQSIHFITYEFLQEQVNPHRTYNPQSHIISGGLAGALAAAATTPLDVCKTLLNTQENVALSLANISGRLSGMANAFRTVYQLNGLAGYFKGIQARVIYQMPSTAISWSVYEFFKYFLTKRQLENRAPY
# UniProt O95258: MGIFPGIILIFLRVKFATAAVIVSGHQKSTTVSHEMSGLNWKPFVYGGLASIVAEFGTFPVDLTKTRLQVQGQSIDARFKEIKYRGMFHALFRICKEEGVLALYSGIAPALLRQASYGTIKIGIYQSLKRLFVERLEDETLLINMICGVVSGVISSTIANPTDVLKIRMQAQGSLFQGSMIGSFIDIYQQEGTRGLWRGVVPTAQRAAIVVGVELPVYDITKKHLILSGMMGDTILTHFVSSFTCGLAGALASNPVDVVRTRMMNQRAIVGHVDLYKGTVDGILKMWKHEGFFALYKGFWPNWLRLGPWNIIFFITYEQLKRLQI
# UniProt O00193: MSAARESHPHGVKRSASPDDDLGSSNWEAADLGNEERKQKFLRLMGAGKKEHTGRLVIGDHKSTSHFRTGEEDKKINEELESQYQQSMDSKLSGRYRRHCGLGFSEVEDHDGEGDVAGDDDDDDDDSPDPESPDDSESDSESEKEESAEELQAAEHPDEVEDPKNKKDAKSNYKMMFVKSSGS
# UniProt Q14542: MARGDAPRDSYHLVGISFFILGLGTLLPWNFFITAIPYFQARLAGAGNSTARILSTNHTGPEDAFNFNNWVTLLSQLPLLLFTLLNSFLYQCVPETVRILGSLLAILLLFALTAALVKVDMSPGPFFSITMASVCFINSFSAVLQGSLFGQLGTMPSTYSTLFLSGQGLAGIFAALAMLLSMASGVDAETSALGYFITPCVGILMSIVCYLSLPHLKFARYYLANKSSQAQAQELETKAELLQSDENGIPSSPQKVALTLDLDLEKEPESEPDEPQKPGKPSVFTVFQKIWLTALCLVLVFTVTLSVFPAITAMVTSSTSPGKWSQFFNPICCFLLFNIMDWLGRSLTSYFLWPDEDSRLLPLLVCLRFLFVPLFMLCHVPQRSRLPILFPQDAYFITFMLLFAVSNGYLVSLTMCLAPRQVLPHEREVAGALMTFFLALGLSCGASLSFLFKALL
# UniProt Q8NBI5: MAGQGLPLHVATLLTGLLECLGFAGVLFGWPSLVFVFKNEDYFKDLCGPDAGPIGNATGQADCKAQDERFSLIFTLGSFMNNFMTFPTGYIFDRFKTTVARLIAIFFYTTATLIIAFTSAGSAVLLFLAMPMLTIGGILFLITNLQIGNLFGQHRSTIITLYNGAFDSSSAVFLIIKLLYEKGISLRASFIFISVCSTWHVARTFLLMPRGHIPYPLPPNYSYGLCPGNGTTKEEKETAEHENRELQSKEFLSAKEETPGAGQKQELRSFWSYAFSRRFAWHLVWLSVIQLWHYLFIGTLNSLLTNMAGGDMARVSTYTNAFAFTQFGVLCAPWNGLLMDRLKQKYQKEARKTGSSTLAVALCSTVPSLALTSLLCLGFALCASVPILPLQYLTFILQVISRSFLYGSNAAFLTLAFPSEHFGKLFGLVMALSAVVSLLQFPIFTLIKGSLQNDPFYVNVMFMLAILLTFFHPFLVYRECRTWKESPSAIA
# UniProt Q9UJS0: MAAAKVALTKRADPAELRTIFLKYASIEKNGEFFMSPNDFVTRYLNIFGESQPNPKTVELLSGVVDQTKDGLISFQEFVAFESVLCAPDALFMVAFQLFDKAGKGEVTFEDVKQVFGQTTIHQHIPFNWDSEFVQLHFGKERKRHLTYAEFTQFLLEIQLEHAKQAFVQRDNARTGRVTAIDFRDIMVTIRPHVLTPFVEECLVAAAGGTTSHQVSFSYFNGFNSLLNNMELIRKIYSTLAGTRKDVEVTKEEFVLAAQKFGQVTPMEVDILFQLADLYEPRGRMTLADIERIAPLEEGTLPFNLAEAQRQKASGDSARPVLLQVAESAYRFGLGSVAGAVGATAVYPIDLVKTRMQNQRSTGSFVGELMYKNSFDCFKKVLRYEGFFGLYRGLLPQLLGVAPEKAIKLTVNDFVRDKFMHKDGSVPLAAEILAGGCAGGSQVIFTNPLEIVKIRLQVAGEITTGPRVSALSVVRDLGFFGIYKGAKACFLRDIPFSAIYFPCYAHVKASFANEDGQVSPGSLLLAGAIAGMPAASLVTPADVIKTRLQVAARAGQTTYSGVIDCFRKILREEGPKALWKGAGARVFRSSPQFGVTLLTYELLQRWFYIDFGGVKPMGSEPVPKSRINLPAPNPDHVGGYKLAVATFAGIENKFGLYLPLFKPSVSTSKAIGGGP
# UniProt L0R6Q1: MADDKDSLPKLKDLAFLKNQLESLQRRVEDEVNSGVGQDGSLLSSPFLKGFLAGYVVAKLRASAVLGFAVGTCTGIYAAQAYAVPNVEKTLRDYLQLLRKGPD
# UniProt Q9BSK2: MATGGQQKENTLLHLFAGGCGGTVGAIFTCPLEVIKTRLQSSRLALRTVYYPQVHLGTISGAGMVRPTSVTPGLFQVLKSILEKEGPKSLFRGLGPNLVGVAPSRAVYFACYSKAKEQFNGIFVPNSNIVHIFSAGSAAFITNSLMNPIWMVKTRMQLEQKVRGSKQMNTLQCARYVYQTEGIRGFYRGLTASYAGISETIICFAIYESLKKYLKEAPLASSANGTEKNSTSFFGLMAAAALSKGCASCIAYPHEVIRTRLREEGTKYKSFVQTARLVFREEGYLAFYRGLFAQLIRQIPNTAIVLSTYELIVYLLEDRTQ
# UniProt O75387: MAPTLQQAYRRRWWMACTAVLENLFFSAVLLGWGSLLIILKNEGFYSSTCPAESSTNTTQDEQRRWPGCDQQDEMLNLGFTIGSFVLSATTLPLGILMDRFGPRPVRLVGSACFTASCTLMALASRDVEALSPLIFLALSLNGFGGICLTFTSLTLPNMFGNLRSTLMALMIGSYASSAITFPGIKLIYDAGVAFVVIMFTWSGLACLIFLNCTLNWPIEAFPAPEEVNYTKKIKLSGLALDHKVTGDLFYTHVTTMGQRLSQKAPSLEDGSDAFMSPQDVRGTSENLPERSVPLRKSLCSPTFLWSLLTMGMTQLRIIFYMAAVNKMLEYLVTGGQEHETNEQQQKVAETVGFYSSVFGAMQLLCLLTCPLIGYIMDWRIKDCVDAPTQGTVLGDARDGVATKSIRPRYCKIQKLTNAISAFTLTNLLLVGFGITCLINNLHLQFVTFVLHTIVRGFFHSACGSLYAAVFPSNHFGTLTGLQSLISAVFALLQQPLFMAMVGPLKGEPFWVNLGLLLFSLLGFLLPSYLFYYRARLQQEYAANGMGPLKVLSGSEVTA
# UniProt Q9H2G2: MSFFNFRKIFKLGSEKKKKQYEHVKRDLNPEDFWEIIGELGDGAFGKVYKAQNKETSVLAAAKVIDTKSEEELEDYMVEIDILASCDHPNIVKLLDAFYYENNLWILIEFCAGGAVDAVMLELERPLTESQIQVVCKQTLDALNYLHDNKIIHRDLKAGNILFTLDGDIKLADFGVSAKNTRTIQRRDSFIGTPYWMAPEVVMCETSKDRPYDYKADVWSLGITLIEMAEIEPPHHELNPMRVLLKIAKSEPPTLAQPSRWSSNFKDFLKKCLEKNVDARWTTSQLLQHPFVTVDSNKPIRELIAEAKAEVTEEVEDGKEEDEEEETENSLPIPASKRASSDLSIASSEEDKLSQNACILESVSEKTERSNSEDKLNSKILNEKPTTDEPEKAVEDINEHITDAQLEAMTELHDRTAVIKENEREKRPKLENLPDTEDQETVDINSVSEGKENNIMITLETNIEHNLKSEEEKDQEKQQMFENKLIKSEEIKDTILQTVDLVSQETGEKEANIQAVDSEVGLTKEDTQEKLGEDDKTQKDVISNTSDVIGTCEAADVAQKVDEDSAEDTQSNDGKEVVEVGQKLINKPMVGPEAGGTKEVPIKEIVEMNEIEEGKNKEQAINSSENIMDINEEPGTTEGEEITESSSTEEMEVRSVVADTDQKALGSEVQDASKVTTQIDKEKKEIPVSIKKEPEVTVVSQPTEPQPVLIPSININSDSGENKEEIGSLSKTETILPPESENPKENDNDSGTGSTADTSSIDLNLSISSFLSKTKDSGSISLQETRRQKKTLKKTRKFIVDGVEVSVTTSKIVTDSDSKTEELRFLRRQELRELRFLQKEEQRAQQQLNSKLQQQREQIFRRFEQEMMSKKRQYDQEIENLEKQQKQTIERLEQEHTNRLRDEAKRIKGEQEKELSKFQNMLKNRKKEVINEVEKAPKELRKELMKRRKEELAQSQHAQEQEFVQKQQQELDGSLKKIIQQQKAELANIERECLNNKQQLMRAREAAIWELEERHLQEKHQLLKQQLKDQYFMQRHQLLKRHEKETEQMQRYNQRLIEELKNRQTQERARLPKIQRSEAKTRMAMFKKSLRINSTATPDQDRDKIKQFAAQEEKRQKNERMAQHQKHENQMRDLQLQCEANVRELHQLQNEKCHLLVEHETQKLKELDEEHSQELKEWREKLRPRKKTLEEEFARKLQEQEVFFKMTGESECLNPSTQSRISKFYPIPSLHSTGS
# UniProt Q96CW6: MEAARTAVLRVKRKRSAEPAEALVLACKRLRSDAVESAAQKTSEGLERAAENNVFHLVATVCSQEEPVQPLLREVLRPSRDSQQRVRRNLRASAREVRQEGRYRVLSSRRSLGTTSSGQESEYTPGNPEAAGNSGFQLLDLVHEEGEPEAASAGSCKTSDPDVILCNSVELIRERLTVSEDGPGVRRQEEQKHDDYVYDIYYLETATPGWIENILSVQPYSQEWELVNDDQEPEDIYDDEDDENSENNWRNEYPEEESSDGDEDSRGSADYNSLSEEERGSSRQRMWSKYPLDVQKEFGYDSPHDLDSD
# UniProt Q9H2H9: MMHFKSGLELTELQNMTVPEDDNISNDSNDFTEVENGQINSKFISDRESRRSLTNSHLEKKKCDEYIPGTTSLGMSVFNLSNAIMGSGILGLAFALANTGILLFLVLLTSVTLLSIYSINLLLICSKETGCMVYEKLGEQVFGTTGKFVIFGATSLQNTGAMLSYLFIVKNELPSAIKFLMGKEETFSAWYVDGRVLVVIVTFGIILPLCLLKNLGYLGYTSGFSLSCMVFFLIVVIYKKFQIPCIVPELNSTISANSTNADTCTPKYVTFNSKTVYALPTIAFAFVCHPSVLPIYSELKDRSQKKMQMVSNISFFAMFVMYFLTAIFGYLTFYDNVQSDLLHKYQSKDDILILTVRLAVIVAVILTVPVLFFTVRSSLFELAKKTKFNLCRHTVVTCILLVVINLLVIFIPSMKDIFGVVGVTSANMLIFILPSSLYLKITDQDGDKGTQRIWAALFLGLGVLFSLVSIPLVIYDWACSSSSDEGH
# UniProt P53007, whole entry, looked up: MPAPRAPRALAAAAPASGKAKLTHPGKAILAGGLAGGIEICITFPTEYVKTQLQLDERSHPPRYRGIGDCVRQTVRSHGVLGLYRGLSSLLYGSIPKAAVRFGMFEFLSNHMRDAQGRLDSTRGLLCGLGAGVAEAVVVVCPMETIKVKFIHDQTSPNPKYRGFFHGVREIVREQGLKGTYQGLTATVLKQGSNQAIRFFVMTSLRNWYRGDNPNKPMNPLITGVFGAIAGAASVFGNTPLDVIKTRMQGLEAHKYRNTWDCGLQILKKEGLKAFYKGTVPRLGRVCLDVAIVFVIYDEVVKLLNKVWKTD
# Some of the results follow.
# How the values were obtained:
# Experiment in all cases: log2 fold change, soluble protein after heating vs DMSO (PISA); higher = thermal stabilisation; K562 lysate, 10 uM; active = over 0.2 and 3.5 SD of the protein, either way, in both replicates (recomputed)
# alvocidib = compound: CN1CC[C@H](c2c(O)cc(O)c3c(=O)cc(-c4ccccc4Cl)oc23)[C@H](O)C1 [alvocidib]
# Method in brief: (§1)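 Quantification was by TMTpro 16plex LC-MS/MS with equalised channel sums, applied to the supernatant after 21,000xg for 90 min. Samples were crude K562 extract at 1 mg/mL protein in PBS pH 7.4 with 1 mM MgCl2, treated with 10 μM compound for 30 min, heated for 3 min across 48°C-58°C, pooled and brought to 0.5% NP-40 at 4°C. Values are log-two fold changes in thermal stability relative to solvent controls, from duplicates.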
# Tubastatin A = compound: CN1CCc2c(c3ccccc3n2Cc2ccc(C(=O)NO)cc2)C1 [Tubastatin A]
# Method in brief: as §1
# [1] = compound: CNC(=O)C1=CC=CC=C1NC2=NC(=NC=C2Cl)NC3=C(C=C(C=C3)N4CCOCC4)OC
# Method in brief: as §1
# defactinib = compound: CNC(=O)c1ccc(Nc2ncc(C(F)(F)F)c(NCc3nccnc3N(C)S(C)(=O)=O)n2)cc1 [defactinib]
# Method in brief: as §1
# [2] = compound: CNc1nc(-c2ccc3c(N)n[nH]c3c2)cc(N2C[C@@H](C(=O)NC3CCCCC3)CC[C@H]2C)n1
# Method in brief: as §1
# encorafenib = compound: COC(=O)N[C@@H](C)CNc1nccc(-c2cn(C(C)C)nc2-c2cc(Cl)cc(NS(C)(=O)=O)c2F)n1 [encorafenib]
# Method in brief: as §1
# [3] = compound: COC(=O)[C@H](CCSC)NC(=O)C1=C(C=C(C=C1)NC[C@H](CS)N)C2=CC=CC=C2
# Method in brief: as §1
# alisertib = compound: COc1cc(Nc2ncc3c(n2)-c2ccc(Cl)cc2C(c2c(F)cccc2OC)=NC3)ccc1C(=O)O [alisertib]
# Method in brief: as §1
# [4] = compound: COc1cc2nc(-c3cc(F)ccc3O)nc(N[C@@H]3CNC[C@H]3C(C)(C)O)c2cc1OC
# Method in brief: as §1
# gefitinib = compound: COc1cc2ncnc(Nc3ccc(F)c(Cl)c3)c2cc1OCCCN1CCOCC1 [gefitinib]
# Method in brief: as §1
# lapatinib = compound: CS(=O)(=O)CCNCc1ccc(-c2ccc3ncnc(Nc4ccc(OCc5cccc(F)c5)c(Cl)c4)c3c2)o1 [lapatinib]
# Method in brief: as §1
# pictilisib = compound: CS(=O)(=O)N1CCN(Cc2cc3nc(-c4cccc5[nH]ncc45)nc(N4CCOCC4)c3s2)CC1 [pictilisib]
# Method in brief: as §1
# crizotinib = compound: C[C@@H](Oc1cc(-c2cnn(C3CCNCC3)c2)cnc1N)c1c(Cl)ccc(F)c1Cl [crizotinib]
# Method in brief: as §1
# [5] = compound: C[C@H](C1=CC=C(C=C1)C(=O)NC2=C3C=CNC3=NC=C2)N
# Method in brief: as §1
# duvelisib = compound: C[C@H](Nc1ncnc2nc[nH]c12)c1cc2cccc(Cl)c2c(=O)n1-c1ccccc1 [duvelisib]
# Method in brief: as §1
# gandotinib = compound: Cc1cc(Nc2cc(CN3CCOCC3)c3nc(C)c(Cc4ccc(Cl)cc4F)n3n2)n[nH]1 [gandotinib]
# Method in brief: as §1
# tozasertib = compound: Cc1cc(Nc2cc(N3CCN(C)CC3)nc(Sc3ccc(NC(=O)C4CC4)cc3)n2)n[nH]1 [tozasertib]
# Method in brief: as §1
# doramapimod = compound: Cc1ccc(-n2nc(C(C)(C)C)cc2NC(=O)Nc2ccc(OCCN3CCOCC3)c3ccccc23)cc1 [doramapimod]
# Method in brief: as §1
# bafetinib = compound: Cc1ccc(NC(=O)c2ccc(CN3CC[C@H](N(C)C)C3)c(C(F)(F)F)c2)cc1Nc1nccc(-c2cncnc2)n1 [bafetinib]
# Method in brief: as §1
# [6] = compound: Cc1cccc(CC(=O)N2CCc3c2ccc(-c2cn(C)c4ncnc(N)c24)c3F)n1
# Method in brief: as §1
Target,log2 fold change (alvocidib),log2 fold change (Tubastatin A),log2 fold change [1],log2 fold change (defactinib),log2 fold change [2],log2 fold change (encorafenib),log2 fold change [3],log2 fold change (alisertib),log2 fold change [4],log2 fold change (gefitinib),log2 fold change (lapatinib),log2 fold change (pictilisib),log2 fold change (crizotinib),log2 fold change [5],log2 fold change (duvelisib),log2 fold change (gandotinib),log2 fold change (tozasertib),log2 fold change (doramapimod),log2 fold change (bafetinib),log2 fold change [6]
SLC25A40 (UniProt Q8TBP6),inactive: 0.096,inactive: -0.016,inactive: 0.022,inactive: 0.037,inactive: 0.005,inactive: 0.019,inactive: 0.086,inactive: 0.049,inactive: -0.038,inactive: -0.001,inactive: 0.002,inactive: -0.008,inactive: -0.01,inactive: 0.171,inactive: 0.007,inactive: -0.129,inactive: -0.006,inactive: -0.067,inactive: -0.003,inactive: -0.157
SLC25A51 (UniProt Q9H1U9),inactive: 0.036,inactive: 0.033,inactive: 0,inactive: 0.023,inactive: -0.017,inactive: 0.024,inactive: -0.041,inactive: 0.06,inactive: -0.003,inactive: 0.004,inactive: 0.102,inactive: 0.006,inactive: -0.013,inactive: -0.007,inactive: 0.034,inactive: -0.047,inactive: -0.069,inactive: 0.052,inactive: -0.025,inactive: 0.108
SLC25A37 (UniProt Q9NYZ2),inactive: 0.005,inactive: 0.111,inactive: 0.103,inactive: -0.027,inactive: 0.001,inactive: 0.019,inactive: 0.009,inactive: 0.023,inactive: 0.007,inactive: 0.04,inactive: -0.02,inactive: -0.007,inactive: 0.034,inactive: 0,inactive: 0.049,inactive: 0.028,inactive: -0.055,inactive: -0.008,inactive: -0.032,inactive: -0.002
SLC25A14 isoform 3 (UniProt O95258),inactive: 0.031,inactive: -0.01,inactive: 0.006,inactive: -0.024,inactive: 0.057,inactive: 0.059,inactive: -0.069,inactive: 0.019,inactive: 0.006,inactive: -0.063,inactive: 0.016,inactive: 0.008,inactive: -0.088,inactive: -0.084,inactive: -0.012,inactive: 0.135,inactive: 0.009,inactive: -0.026,inactive: -0.027,inactive: 0.112
SMAP (UniProt O00193),inactive: 0.04,inactive: 0.022,inactive: 0.02,inactive: 0,inactive: 0.055,inactive: -0.017,inactive: -0.027,inactive: 0.02,inactive: 0.021,inactive: -0.031,inactive: 0.005,inactive: 0.008,inactive: 0.101,inactive: -0.032,inactive: -0.015,inactive: 0.068,inactive: 0.024,inactive: -0.087,inactive: 0.013,inactive: -0.008
SLC29A2 (UniProt Q14542),inactive: -0.134,inactive: -0.018,inactive: 0.187,inactive: -0.011,inactive: -0.042,inactive: 0.025,inactive: 0.007,inactive: -0.031,inactive: 0.008,inactive: 0.046,inactive: -0.006,inactive: 0.04,inactive: -0.068,active: -0.558,inactive: 0.083,inactive: 0.159,inactive: 0.035,inactive: -0.023,inactive: 0.045,inactive: 0.146
SLIRP (UniProt Q9GZT3),inactive: -0.028,inactive: 0.031,inactive: 0.022,inactive: 0.023,inactive: 0.052,inactive: -0.001,inactive: -0.127,inactive: 0.012,inactive: -0.025,inactive: -0.053,inactive: 0.028,inactive: 0.008,inactive: -0.013,inactive: -0.138,inactive: -0.022,inactive: 0.06,inactive: -0.008,inactive: 0.012,inactive: 0.025,inactive: 0.043
SLC43A3 isoform 2 (UniProt Q8NBI5),inactive: -0.015,inactive: -0.018,inactive: -0.012,inactive: 0.024,inactive: 0.014,inactive: 0.045,inactive: -0.045,inactive: -0.017,inactive: -0.015,inactive: 0.044,inactive: -0.043,inactive: -0.016,inactive: -0.013,inactive: -0.013,inactive: -0.004,inactive: 0.069,inactive: -0.003,inactive: 0.001,inactive: 0.037,inactive: -0.05
SLC25A13 isoform 2 (UniProt Q9UJS0),inactive: 0.009,inactive: 0.041,inactive: -0.014,inactive: 0.015,inactive: 0.013,inactive: 0.012,inactive: 0.024,inactive: 0.005,inactive: 0.012,inactive: 0.01,inactive: 0.005,inactive: -0.013,inactive: 0.016,inactive: -0.079,inactive: -0.006,inactive: 0.043,inactive: -0.017,inactive: -0.018,inactive: 0.005,inactive: 0.018
SLC35A4 (UniProt L0R6Q1),inactive: -0.024,inactive: 0.082,inactive: 0.055,inactive: 0.124,inactive: 0.06,inactive: 0.037,inactive: 0.022,inactive: 0.042,inactive: -0.054,inactive: -0.147,inactive: 0.06,inactive: 0.02,inactive: -0.084,inactive: -0.066,inactive: 0,inactive: 0.095,inactive: 0.051,inactive: 0.05,inactive: 0.035,inactive: 0.091
SLC25A33 (UniProt Q9BSK2),inactive: 0.032,inactive: 0.038,inactive: 0.122,inactive: -0.066,inactive: -0.085,inactive: -0.097,inactive: 0.089,inactive: 0.038,inactive: 0.009,inactive: -0.125,inactive: -0.019,inactive: 0.019,inactive: -0.005,inactive: -0.073,inactive: 0.01,inactive: 0.004,inactive: -0.059,inactive: -0.031,inactive: -0.07,inactive: 0.018
SLC43A1 (UniProt O75387),inactive: -0.03,inactive: 0,inactive: -0.031,inactive: 0.012,inactive: 0.07,inactive: 0.015,inactive: -0.015,inactive: 0.076,inactive: 0.024,inactive: -0.022,inactive: 0.033,inactive: 0.088,inactive: 0.001,inactive: -0.043,inactive: 0.039,inactive: 0.05,inactive: -0.004,inactive: -0.031,inactive: -0.058,inactive: 0.076
SLK isoform 2 (UniProt Q9H2G2),inactive: 0.046,inactive: -0.005,inactive: 0.103,inactive: 0.044,inactive: 0.019,inactive: -0.046,inactive: -0.009,inactive: -0.01,inactive: -0.011,inactive: 0.05,inactive: -0.08,inactive: 0.015,inactive: 0.157,inactive: 0.003,inactive: -0.01,inactive: 0.138,inactive: -0.03,inactive: -0.111,inactive: -0.036,inactive: -0.102
SLC7A6OS (UniProt Q96CW6),inactive: -0.053,inactive: 0.063,inactive: 0.042,inactive: 0.046,inactive: -0.066,inactive: -0.028,inactive: -0.036,inactive: 0.006,inactive: 0.031,inactive: -0.151,inactive: 0.013,inactive: 0.002,inactive: 0.014,inactive: -0.031,inactive: -0.027,inactive: 0.099,inactive: 0.028,inactive: -0.014,inactive: -0.035,inactive: -0.023
SLC38A1 (UniProt Q9H2H9),inactive: -0.111,inactive: 0.022,inactive: -0.026,inactive: -0.016,inactive: -0.054,inactive: 0.019,inactive: -0.045,inactive: -0.021,inactive: 0.011,inactive: 0.073,inactive: -0.008,inactive: -0.01,inactive: -0.064,inactive: -0.218,inactive: 0.048,inactive: 0.096,inactive: 0.026,inactive: -0.009,inactive: 0.003,inactive: 0.095
SLC25A1 (UniProt P53007),inactive: 0.02,inactive: 0.041,inactive: 0.015,inactive: 0.008,inactive: 0.011,inactive: 0.009,inactive: 0.077,inactive: 0.05,inactive: 0,inactive: -0.034,inactive: -0.039,inactive: 0.006,inactive: 0.013,inactive: -0.02,inactive: -0.012,inactive: 0.024,inactive: -0.025,inactive: 0.013,inactive: -0.023,inactive: 0.037

# Some of the entries so far, with tabs:
Target	log2 fold change (alvocidib)	log2 fold change (Tubastatin A)	log2 fold change [1]	log2 fold change (defactinib)	log2 fold change [2]	log2 fold change (encorafenib)	log2 fold change [3]	log2 fold change (alisertib)	log2 fold change [4]	log2 fold change (gefitinib)	log2 fold change (lapatinib)	log2 fold change (pictilisib)	log2 fold change (crizotinib)	log2 fold change [5]	log2 fold change (duvelisib)	log2 fold change (gandotinib)	log2 fold change (tozasertib)	log2 fold change (doramapimod)	log2 fold change (bafetinib)	log2 fold change [6]
SLC29A2 (UniProt Q14542)	inactive: -0.134	inactive: -0.018	inactive: 0.187	inactive: -0.011	inactive: -0.042	inactive: 0.025	inactive: 0.007	inactive: -0.031	inactive: 0.008	inactive: 0.046	inactive: -0.006	inactive: 0.04	inactive: -0.068	active: -0.558	inactive: 0.083	inactive: 0.159	inactive: 0.035	inactive: -0.023	inactive: 0.045	inactive: 0.146
SLC38A1 (UniProt Q9H2H9)	inactive: -0.111	inactive: 0.022	inactive: -0.026	inactive: -0.016	inactive: -0.054	inactive: 0.019	inactive: -0.045	inactive: -0.021	inactive: 0.011	inactive: 0.073	inactive: -0.008	inactive: -0.01	inactive: -0.064	inactive: -0.218	inactive: 0.048	inactive: 0.096	inactive: 0.026	inactive: -0.009	inactive: 0.003	inactive: 0.095
